This is an account of results in PubChem BioAssay AID1487 (National Center for Advancing Translational Sciences (NCATS), 2009).

The structures appear in SMILES notation. The list shows a part of the results. Shown are side measurements of this screen, not its main read-out; they come without a call. The list favours compounds with an active or inconclusive main result. Potencies come from curve fits of mixed quality, noted in brackets.

The test is described as follows: qHTS Assay for Modulators of Lamin A Splicing. Particulars: HeLa LMNA splicing GFP/RFP minigene ratio, 48 h. The gist of the method: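 Read-out is the ratio of GFP to DsRed2 object intensity, acquired by 488 nm laser-scanning cytometry on HeLa lamin A-EGFP minigene reporter cells. Compound incubation 48 hrs at 37 °C in Opti-MEM with 2% FBS; DMSO 0.5% final.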
For orientation: qHTS replaces the single test concentration by a dilution series.

Where [1] appears, read: measured here: RFP viability control channel.
The mark [2] stands for this setting: measured here: GFP splicing reporter channel.

As for `CCc1cccc(CC)c1NC(=S)N(CCN(C)C)C(C)c1cccnc1` (configuration not stated), the AC50 (as a rule, the concentration at which the activity in the assay is half-maximal) under setting [1] was 0.794 µM [rising, full curve, poor fit].

Consider `O=C(CCc1ccccc1)N/N=C/c1cc(Br)ccc1O`, for which the AC50 under setting [1] was 15.8 µM [rising, partial curve].

Take `NS(=O)(=O)c1ccc(O)c(N2C(=O)c3cccc4c(C(=O)O)ccc(c34)C2=O)c1`: the AC50 under setting [1] is 0.891 µM [falling, single point].

For `COc1ccc(-c2csc(NCc3ccco3)n2)cc1`, under setting [1], the half-maximal activity concentration (AC50) is 12.6 µM [rising, single point].

In the case of `Cc1ccc(Nc2cc(C)nc3c(C)ccc([N+](=O)[O-])c23)cc1`, the AC50 was 17.8 µM [rising, single point] under setting [2] and 11.2 µM [rising, partial curve, poor fit] under setting [1].

With `CC12CCC(CC1)C(C)(C)O2`, the AC50 is 0.1 µM [falling, single point] under setting [2] and 35.5 µM [falling, single point] under setting [1].

As for `Cc1ccc(C2c3[nH]c4ccccc4c3CCN2C(=O)CCC2CCCC2)cc1` (configuration not stated), under setting [1], the concentration at half-maximal activity (AC50) is 3.55 µM [rising, full curve].

`CC(C)(C)C(=O)Cn1nnc(-c2ccc(C(F)(F)F)cc2)n1`: the concentration at half-maximal activity (AC50) under setting [1] is 0.0794 µM [falling, full curve, poor fit].

With `Cc1ccc(Cl)cc1-n1ncc2c(Nc3cccc(C)c3C)ncnc21`, the AC50 under setting [2] was 20 µM [falling, partial curve, poor fit].

Consider `Cc1ccn2cc(C(=O)Nc3ccccc3N3CCOCC3)nc2c1`, for which the half-maximal activity concentration (AC50) under setting [2] is 15.8 µM [rising, single point].

With `O=C(Nc1cc(=O)[nH]c2ncnn12)c1ccccc1Cl`, the AC50 under setting [2] was 10 µM [rising, single point].

As to `CS(=O)(=O)N(CCc1ccccc1)CC(=O)N1CCN(Cc2ccc3c(c2)OCO3)CC1`, the AC50 is 8.91 µM [rising, partial curve] under setting [2] and 12.6 µM [rising, partial curve] under setting [1].

Take `Cc1cc(-c2ccc(N3CCOCC3)cc2)nc2ccccc12`: the AC50 runs as follows: under setting [2], 35.5 µM [rising, single point]; under setting [1], 35.5 µM [rising, partial curve, poor fit].

On to `Cc1cc2c(n1-c1ccc(C(=O)NCc3ccc(OC(C)C)cc3)cc1)CCCC2`, for which the AC50 under setting [2] was 35.5 µM [falling, single point].

Take `CC(=O)OC1CCC2C3CCc4cc(O)ccc4C3CCC12C` (configuration not stated): the AC50 was 11.2 µM [rising, partial curve] under setting [2] and 6.31 µM [rising, full curve] under setting [1].

Take `CC1=C(CC(=O)c2ccccc2)C(=O)c2ccccc2C1=O`: the concentration at half-maximal activity (AC50) under setting [2] is 35.5 µM [falling, single point] and the half-maximal activity concentration (AC50) under setting [1] is 35.5 µM [falling, single point].

In the case of `COc1ccc(-c2noc(CCC(=O)Nc3cc(OC)ccc3OC)n2)cc1`, the AC50 runs as follows: under setting [2], 11.2 µM [rising, partial curve, poor fit]; under setting [1], 17.8 µM [rising, single point].

With `CN1/C(=C\C(=O)c2cccnc2Cl)C(C)(C)c2ccccc21`, the AC50 was 12.6 µM [rising, single point] under setting [2] and 20 µM [rising, single point] under setting [1].

In the case of `CCCCn1c(N2CCC(Cc3ccccc3)CC2)nc2c1c(=O)[nH]c(=O)n2C`, the half-maximal activity concentration (AC50) is, setting by setting: under setting [2], 12.6 µM [rising, partial curve]; under setting [1], 22.4 µM [rising, single point].

For `O=c1/c(=C/c2ccccn2)sc2nc3ccccc3n12`, under setting [1], the half-maximal activity concentration (AC50) was 0.126 µM [falling, full curve, poor fit].

On to `Cc1cc(C)nc(NS(=O)(=O)c2ccc(NC(=O)CN3C(=O)S/C(=C\c4ccccc4)C3=O)cc2)n1`, for which the half-maximal activity concentration (AC50) under setting [2] is 3.98 µM [falling, single point].

Turning to `Cc1cc2c(n1-c1ccc(C(=O)NCCc3ccccc3)cc1)CCC(C)C2` (configuration not stated), the half-maximal activity concentration (AC50) by setting is: under setting [2], 22.4 µM [rising, single point]; under setting [1], 15.8 µM [rising, single point].

`Cc1cccc2sc(NNC(=O)c3ccc(S(=O)(=O)N4CCc5ccccc5C4)cc3)nc12`: the AC50 under setting [1] was 2.51 µM [rising, full curve].

`Cc1cc(=O)n(C)c(=O)n1CCCNc1ccccc1`: the AC50 under setting [2] was 11.2 µM [rising, single point] and the half-maximal activity concentration (AC50) under setting [1] is 17.8 µM [rising, single point].

Regarding `COc1cccc(Cn2c(=O)c(CCc3ccccc3)nc3cnc(N4CCNCC4)nc32)c1`, the AC50 under setting [2] was 20 µM [falling, partial curve] and the half-maximal activity concentration (AC50) under setting [1] was 20 µM [falling, partial curve].

Turning to `Cc1ccc2nc(-c3ccc4c(c3)OCCO4)cc(C(=O)O)c2c1`, under setting [1], the AC50 is 31.6 µM [rising, single point].

Turning to `Cc1cccc(NS(=O)(=O)c2ccc3c(c2)OCC(C(=O)N2CCCC2)O3)c1C` (configuration not stated), under setting [1], the AC50 is 0.0282 µM [falling, full curve].

As to `CCCc1ccc(C(=O)O)cc1`, the AC50 under setting [2] was 1.58 µM [falling, partial curve, poor fit].

As for `COC(=O)N/N=C/c1ccc([N+](=O)[O-])o1`, the concentration at half-maximal activity (AC50) under setting [1] is 25.1 µM [rising, single point].

On to `Clc1cccc(Cl)c1/C=C/c1nc2ccccc2[nH]1`, for which the half-maximal activity concentration (AC50) is 3.16 µM [rising, partial curve] under setting [2] and 15.8 µM [rising, partial curve] under setting [1].

As for `CCOc1ccc(OCc2ccc(C(=O)N/N=C(\C)c3ccccn3)cc2)cc1`, the AC50 under setting [1] is 35.5 µM [falling, single point].

For `COc1cccc(C2CC3(CC(C)(C)NC(=S)N3)Oc3cc(O)ccc32)c1` (configuration not stated), under setting [1], the concentration at half-maximal activity (AC50) is 12.6 µM [rising, single point].

Consider `CS(=O)(=O)Cc1nc2ccccc2oc1=O`, for which the AC50 under setting [1] was 31.6 µM [rising, single point].

For `O=C(NCCS(=O)(=O)N1CCN(c2ccc(F)cc2)CC1)C1CC(=O)N(c2ccccc2)C1` (configuration not stated), the AC50 by setting is: under setting [2], 6.31 µM [falling, single point]; under setting [1], 2.51 µM [falling, partial curve, poor fit].

With `O=C(CSc1nnnn1C1CCCCC1)Nc1nc2c(s1)CCCC2`, the AC50 under setting [2] was 12.6 µM [rising, partial curve, poor fit] and the half-maximal activity concentration (AC50) under setting [1] was 22.4 µM [rising, partial curve].

`CC(=O)Nc1ccc(-c2nnc(SCC(=O)c3ccc4c(c3)Cc3ccccc3-4)n2C)cc1`: the concentration at half-maximal activity (AC50) reads like this: under setting [2], 35.5 µM [falling, single point]; under setting [1], 35.5 µM [falling, single point].
